Data taken from US20070271623A1.
These are yes or no findings as the source states them, for the method shown. Some results given as binding are weak or reduced against the parent protein; the word gives no strength. Where a sequence is shown, tags or fusion partners need not be part of it.

Protein sequences, listed by entry. Tags and fused reporters are not part of them. Lines headed by an entry give the natural chain unless they say otherwise; changes in a name come on top.
UniProt P04386: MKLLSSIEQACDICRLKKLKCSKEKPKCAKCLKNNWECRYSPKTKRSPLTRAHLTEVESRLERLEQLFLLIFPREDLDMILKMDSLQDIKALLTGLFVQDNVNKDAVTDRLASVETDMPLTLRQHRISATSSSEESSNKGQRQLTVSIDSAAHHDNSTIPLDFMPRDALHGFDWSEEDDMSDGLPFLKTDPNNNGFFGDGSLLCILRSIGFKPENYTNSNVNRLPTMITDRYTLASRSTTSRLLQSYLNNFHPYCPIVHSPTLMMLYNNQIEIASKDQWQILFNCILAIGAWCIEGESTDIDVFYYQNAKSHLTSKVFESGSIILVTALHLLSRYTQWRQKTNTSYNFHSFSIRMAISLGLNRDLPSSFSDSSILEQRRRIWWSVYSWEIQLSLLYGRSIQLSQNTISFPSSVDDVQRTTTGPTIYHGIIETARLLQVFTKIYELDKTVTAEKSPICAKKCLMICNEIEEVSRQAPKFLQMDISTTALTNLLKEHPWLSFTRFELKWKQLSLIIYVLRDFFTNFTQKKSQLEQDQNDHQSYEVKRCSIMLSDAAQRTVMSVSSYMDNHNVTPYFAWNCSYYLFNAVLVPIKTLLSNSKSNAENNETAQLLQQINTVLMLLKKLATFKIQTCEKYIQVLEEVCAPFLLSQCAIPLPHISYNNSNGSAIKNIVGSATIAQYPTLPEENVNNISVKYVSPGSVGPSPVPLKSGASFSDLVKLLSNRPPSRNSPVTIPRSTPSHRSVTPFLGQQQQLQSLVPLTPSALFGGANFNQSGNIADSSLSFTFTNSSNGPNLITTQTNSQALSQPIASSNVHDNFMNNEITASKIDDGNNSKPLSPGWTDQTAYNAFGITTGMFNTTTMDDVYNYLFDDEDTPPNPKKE

Target: T1, MKS1 as interacting prey (AD fusion) (Arabidopsis thaliana) (UniProt Q8LGD5)
T1 sequence: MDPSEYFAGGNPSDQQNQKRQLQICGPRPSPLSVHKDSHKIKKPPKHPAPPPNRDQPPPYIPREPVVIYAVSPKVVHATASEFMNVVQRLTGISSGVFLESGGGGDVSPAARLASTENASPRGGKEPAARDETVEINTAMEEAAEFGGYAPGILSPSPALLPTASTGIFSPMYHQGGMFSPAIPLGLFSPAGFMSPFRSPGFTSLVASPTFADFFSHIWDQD
Assay: yeast two-hybrid library screen

- binding: binds
Substance: MPK4 as bait (BD fusion) (from UniProt P04386 1-147; Q39024 1-376)
